The structures appear in SMILES notation. The list is a part of this screen's results and no random one: it gathers tests that were run many times, whatever their T/C, doses with no T/C, and many T/C values between a quarter and a half above the control. Further doses and runs are listed elsewhere. T/C: endpoint of the treated group in % of that of the vehicle group. Schedules are NCI's codes, taken here to give the interval after Q, in days (D) or hours (H), and the number of doses after X. Some T/C values carry the count of animals alive at the toxicity check (mostly the fifth day); where none is given, no animal had died by that day. Some entries give survivors of the animals treated and no T/C: the source files T/C as zero there, which appears to mark a toxic dose or a test without result, not a measured value. Counts of survivors are from the toxicity check (mostly the fifth day) where no day follows; animals may have died later. Some entries hold several experiments; the results are listed from low to high. Some structures stand for samples that the source files as different forms (salt, stereo form or complex); doses refer to the form tested.

The test system of this assay is MX-1 breast xenograft, nude mice, tumor weight T/C. The assay can be described thus: NCI In Vivo Anticancer Drug Screen. Data for tumor model Human Mammary Carcinoma MX-1 Xenograft (intrarenal inoculation) in NU/NU Swiss (nude) mice. The following applies: T/C endpoint: mean tumor weight change, higher T/C = larger tumour; for T/C: evaluated on day 11. Summed up:
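Compound dosed to mice with transplantable tumor; vehicle group as control. Endpoint survival or tumour size, reported as T/C.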

Where [1] appears, read: dose: 40.0 mg/kg/injection, schedule: Q04DX003 (sc), vehicle: saline.
The mark [2] stands for this setting: dose: 400.0 mg/kg/injection, schedule: Q01DX010 (sc), vehicle: Klucel (hydroxypropylcellulose) (HPC).
[3] abbreviates: dose: 50.0 mg/kg/injection, schedule: Q04DX003 (sc), vehicle: Klucel (hydroxypropylcellulose) (HPC).
Where [4] appears, read: dose: 100.0 mg/kg/injection, schedule: Q04DX003 (sc), vehicle: Klucel (hydroxypropylcellulose) (HPC).
Setting [5] is: dose: 2400.0 mg/kg/injection, schedule: Q04DX003 (sc), vehicle: saline with Tween-80.

As for `Nc1ncnc2c1ccn2C1OC(CO)C(O)C1O` (stereo not given), where the note is “dose: 8.0 mg/kg/injection, schedule: Q01DX010 (sc), vehicle: Klucel (hydroxypropylcellulose) (HPC)”, the survivor count is given as 0 of 3 on day 11. Consider `CCCCCCCCSC1=C(Cl)C(=O)C(OC)=C(OC)C1=O`, for which, for the setting “dose: 288.0 mg/kg/injection, schedule: Q04DX003 (sc), vehicle: saline with Tween-80”, the survivor count is 1 of 6 on day 11. For the compound `CCCCN(CCCC)C(Cl)=Nc1ccccc1`, the T/C (dose: 400.0 mg/kg/injection, schedule: Q04DX003 (sc), vehicle: other) was 125 % of control. Take `O=NN(CCCl)C(=O)NC1OC(CO)C(O)C(O)C1O` (stereo not given): the survivor count under setting [1] was 3 of 6 on day 11. With `C=CCNc1ccc(C)cc1`, the survivor count is, setting by setting: (dose: 200.0 mg/kg/injection, schedule: Q01DX010 (sc), vehicle: Klucel (hydroxypropylcellulose) (HPC)) 1 of 3 on day 11; under setting [2], 1 of 5 on day 11; (dose: 800.0 mg/kg/injection, schedule: Q01DX010 (sc), vehicle: Klucel (hydroxypropylcellulose) (HPC)) 0 of 6 on day 11.

With `N#Cc1c(-c2ccc(F)cc2)c(-c2ccc(F)cc2)nn(CCO)c1=O`, the survivor count is, setting by setting: (dose: 400.0 mg/kg/injection, schedule: Q04DX003 (ip), vehicle: distilled water + Tween-80) 3 of 6 on day 11; (dose: 800.0 mg/kg/injection, schedule: Q04DX003 (ip), vehicle: distilled water + Tween-80) 2 of 6 on day 11. Take `N=c1ccn2c(n1)OC1C(O)C(CO)OC12` (stereo not given): the survivor count is 3 of 5 on day 11 (dose: 300.0 mg/kg/injection, schedule: Q04DX003 (sc), vehicle: suspension in saline) and 1 of 6 on day 11 (dose: 3200.0 mg/kg/injection, schedule: Q04DX003 (sc), vehicle: saline). On to `CN(C)N=Nc1ccc(C(=O)O)cc1`, for which the survivor count (dose: 800.0 mg/kg/injection, schedule: Q04DX003 (ip), vehicle: saline) is reported as 0 of 6 on day 11. As for `Cc1ccc2c(c1)C(=O)N(CC[P+](c1ccccc1)(c1ccccc1)c1ccccc1)C2=O`, the T/C (dose: 12.5 mg/kg/injection, schedule: Q04DX003 (sc), vehicle: Klucel (hydroxypropylcellulose) (HPC)) was 129 % of control and the T/C under setting [3] was 136 % of control. For the same compound, under setting [4], the survivor count was 1 of 6 on day 11. For `[Cl][Pt+2][Cl].[NH-]C1CCC1.[NH2-]`, the survivor count is, setting by setting: (dose: 50.0 mg/kg/injection, schedule: Q04DX003 (sc), vehicle: suspension in saline) 0 of 6 on day 11 and 3 of 6 on day 11; (dose: 100.0 mg/kg/injection, schedule: Q04DX003 (sc), vehicle: suspension in saline) 2 of 5 on day 11. In the case of `O=C(/C=C(\Cl)C(=O)NO)NO`, the survivor count (dose: 400.0 mg/kg/injection, schedule: Q04DX003 (sc), vehicle: saline) is 0 of 6 on day 11. `O=NNc1ccc(Cl)cn1`: the survivor count is listed as 0 of 6 on day 11 (dose: 75.0 mg/kg/injection, schedule: Q04DX003 (ip), vehicle: water) and 0 of 6 on day 11 (dose: 150.0 mg/kg/injection, schedule: Q04DX003 (ip), vehicle: water). On to `COc1cc(NS(C)(=O)=O)ccc1Nc1c2ccccc2nc2ccccc12`, for which, for the setting “dose: 0.94 mg/kg/injection, schedule: Q01DX010 (sc), vehicle: clinical formulation”, the T/C was 129 % of control. For the same compound, the survivor count is 1 of 3 on day 11 (dose: 1.88 mg/kg/injection, schedule: Q01DX010 (sc), vehicle: clinical formulation); 0 of 3 on day 11 and 1 of 3 on day 11 (dose: 6.0 mg/kg/injection, schedule: Q01DX010 (sc), vehicle: lactic acid); 0 of 3 on day 11 (dose: 7.5 mg/kg/injection, schedule: Q01DX010 (sc), vehicle: clinical formulation). As to `COC1=C(N)C(=O)c2nc(-c3nc(C(=O)O)c(C)c(-c4ccc(OC)c(OC)c4O)c3N)ccc2C1=O`, for the setting “dose: 1.0 mg/kg/injection, schedule: Q01DX010 (sc), vehicle: saline”, the survivor count is 0 of 3 on day 11 and 0 of 6 on day 11. As to `C=C1C(=O)C23[C@H](O)C1CC[C@H]2[C@]12COC3(O)[C@@H](O)[C@@H]1C(C)(C)CC[C@@H]2O`, the survivor count runs as follows: under setting [3], 1 of 5 on day 11; under setting [4], 0 of 6 on day 11.

Regarding `CC1(c2ccc(Cl)cc2)OC(=O)C(=Cc2ccc([N+](=O)[O-])s2)C(=O)O1` (stereo not given), under setting [5], the survivor count is given as 2 of 6 on day 11.

With `Cc1c(N)nc(C(CC(N)=O)NCC(N)C(N)=O)nc1C(=O)NC(C(=O)NC(C)C(O)C(C)C(=O)NC(C(=O)NCCc1nc(-c2nc(C(=O)NCCCNC(C)c3ccccc3)cs2)cs1)C(C)O)C(OC1OC(CO)C(O)C(O)C1OC1OC(CO)C(O)C(OC(N)=O)C1O)c1cnc[nH]1` (stereo not given), the T/C (dose: 4.0 mg/kg/injection, schedule: Q01DX010 (sc), vehicle: saline) was 141 % of control. As for `Nc1n[nH]c(N)n1`, where the note is “dose: 1600.0 mg/kg/injection, schedule: Q01DX010 (sc), vehicle: saline”, the survivor count is recorded as 0 of 3 on day 11.

Consider `O=C1c2ccccc2C(=O)c2c3c(cc(NCCNCCO)c21)N(CCO)CCN3`, for which the T/C reads like this: (dose: 100.0 mg/kg/injection, schedule: Q04DX003 (sc), vehicle: DMSO) 132 % of control; (dose: 400.0 mg/kg/injection, schedule: Q04DX003 (sc), vehicle: DMSO) 137 % of control; (dose: 800.0 mg/kg/injection, schedule: Q04DX003 (sc), vehicle: DMSO) 144 % of control [5 of 6 alive on day 11].

With `CC(C)CC(NC(=O)CF)C(=O)O` (stereo not given), under “dose: 5.0 mg/kg/injection, schedule: Q04DX003 (sc), vehicle: saline”, the T/C is 144 % of control. For the same compound, the survivor count under setting [1] was 2 of 6 on day 11. Take `COC1=C(OC)C(=O)C(C/C=C(\C)CC/C=C(\C)CC/C=C(\C)CC/C=C(\C)CC/C=C(\C)CC/C=C(\C)CC/C=C(\C)CC/C=C(\C)CC/C=C(\C)CCC=C(C)C)=C(C)C1=O`: the T/C was 127 % of control (dose: 100.0 mg/kg/injection, schedule: Q01DX010 (sc), vehicle: saline with Tween-80) and 138 % of control (dose: 200.0 mg/kg/injection, schedule: Q01DX010 (sc), vehicle: saline with Tween-80).

Consider `O=c1[nH]c(=O)n([C@H]2CCCO2)cc1F`, for which the T/C under setting [2] is 131 % of control. Take `CN=S(=O)(OCCCCCOS(=O)(=NC)c1ccccc1)c1ccccc1` (stereo not given): the T/C (dose: 300.0 mg/kg/injection, schedule: Q04DX003 (sc), vehicle: saline with Tween-80) is 127 % of control. For the same compound, the survivor count (dose: 1200.0 mg/kg/injection, schedule: Q04DX003 (sc), vehicle: saline with Tween-80) is reported as 2 of 6 on day 11 and the survivor count under setting [5] is recorded as 0 of 6 on day 11. For the compound `c1csc(C[N+]23CN4CN(CN(C4)C2)C3)c1`, for the setting “dose: 200.0 mg/kg/injection, schedule: Q04DX003 (sc), vehicle: saline”, the T/C was 138 % of control. In addition, the survivor count (dose: 800.0 mg/kg/injection, schedule: Q04DX003 (sc), vehicle: saline) is reported as 0 of 6 on day 11. Consider `O=C(O)CCCc1ccc(N(CCCl)CCCl)cc1`, for which the survivor count is on record as 0 of 3 on day 11 (dose: 16.0 mg/kg/injection, schedule: Q01DX010 (sc), vehicle: saline with Tween-80) and 0 of 3 on day 11 (dose: 32.0 mg/kg/injection, schedule: Q01DX010 (sc), vehicle: saline with Tween-80).

`C=C(Cl)C(=NC(C)(C)C)Nc1ccccc1C`: the T/C is 145 % of control [4 of 6 alive on day 11] (dose: 150.0 mg/kg/injection, schedule: Q04DX003 (sc), vehicle: Klucel (hydroxypropylcellulose) (HPC)) and 137 % of control [4 of 6 alive on day 11] (dose: 300.0 mg/kg/injection, schedule: Q04DX003 (sc), vehicle: Klucel (hydroxypropylcellulose) (HPC)). Moreover, the survivor count (dose: 600.0 mg/kg/injection, schedule: Q04DX003 (sc), vehicle: Klucel (hydroxypropylcellulose) (HPC)) is listed as 1 of 6 on day 11. As to `COC(=O)C12OCC34C(CC5C(C)=CC(=O)C(O)C5(C)C3C(O)C1O)OC(=O)C(OC(=O)CC(C)C)C24` (stereo not given), the survivor count was 1 of 6 on day 11 (dose: 6.0 mg/kg/injection, schedule: Q04DX003 (sc), vehicle: saline + alcohol) and 0 of 6 on day 11 (dose: 12.0 mg/kg/injection, schedule: Q04DX003 (sc), vehicle: saline + alcohol).

(Values after PubChem BioAssay AID296 (DTP/NCI, 2004).)
